PubChem BioAssay AID1224830, NIAID | 2016
Aim: 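Host factors that control LPS-induced TNF expression in human macrophages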 (primary screen). Cells: human THP-1 monocytic leukaemia cells, TNF dual-luciferase reporter clone, PMA-differentiated to macrophage-like cells. Knock-down reagent: siRNA pool against human genes, 50 nM. Timing: LPS for 4 h, given about 3 days after siRNA transfection. Challenge: bacterial LPS (TLR4 ligand), 10 ng/ml. Measurement: 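Ratio of firefly to renilla light, scaled to the plate median and expressed as a robust z-score per replicate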. Direction: TNF reporter robust z-score: higher = stronger TNF reporter response to LPS. Call rule: 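Each well counts as active if its z-score is over 2.8 or under -1.5; controls are left without a call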.
This is one part, drawn at random, of about 18,000 reagents tested. About 2,900 of them (16%) count as active. 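Calls are made per well; low scores hint the gene aids the LPS response, high scores that it dampens it.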 Repeated entries: four replicate wells of each siRNA pool.

TNF reporter robust z-score	outcome	gene knocked down
0.09	inactive	GDF2 (growth differentiation factor 2)
-0.12	inactive	GDF2 (growth differentiation factor 2)
-0.59	inactive	GDF2 (growth differentiation factor 2)
0.07	inactive	GDF2 (growth differentiation factor 2)
0.43	inactive	CCNI (cyclin I)
0.95	inactive	CCNI (cyclin I)
1.57	inactive	CCNI (cyclin I)
0.9	inactive	CCNI (cyclin I)
4.25	active	ZNF14 (zinc finger protein 14)
4.57	active	ZNF14 (zinc finger protein 14)
1.02	inactive	ZNF14 (zinc finger protein 14)
1.09	inactive	ZNF14 (zinc finger protein 14)
0.4	inactive	PNLDC1 (PARN like ribonuclease domain containing exonuclease 1)
0.89	inactive	PNLDC1 (PARN like ribonuclease domain containing exonuclease 1)
0.52	inactive	PNLDC1 (PARN like ribonuclease domain containing exonuclease 1)
0.84	inactive	PNLDC1 (PARN like ribonuclease domain containing exonuclease 1)
0.88	inactive	ADCY7 (adenylate cyclase 7)
0.34	inactive	ADCY7 (adenylate cyclase 7)
0.17	inactive	ADCY7 (adenylate cyclase 7)
1.01	inactive	ADCY7 (adenylate cyclase 7)
0.34	inactive	FCER2 (Fc epsilon receptor II)
0.39	inactive	FCER2 (Fc epsilon receptor II)
0.2	inactive	FCER2 (Fc epsilon receptor II)
0.14	inactive	FCER2 (Fc epsilon receptor II)
1.23	inactive	HNRNPA3 (heterogeneous nuclear ribonucleoprotein A3)
1.62	inactive	HNRNPA3 (heterogeneous nuclear ribonucleoprotein A3)
0.82	inactive	HNRNPA3 (heterogeneous nuclear ribonucleoprotein A3)
1.29	inactive	HNRNPA3 (heterogeneous nuclear ribonucleoprotein A3)
0.53	inactive	PIBF1 (progesterone immunomodulatory binding factor 1)
0.88	inactive	PIBF1 (progesterone immunomodulatory binding factor 1)
0.72	inactive	PIBF1 (progesterone immunomodulatory binding factor 1)
0.45	inactive	PIBF1 (progesterone immunomodulatory binding factor 1)
-0.56	inactive	SHH (sonic hedgehog signaling molecule)
4.18	active	SHH (sonic hedgehog signaling molecule)
0.84	inactive	SHH (sonic hedgehog signaling molecule)
-0.1	inactive	SHH (sonic hedgehog signaling molecule)
-1.05	inactive	NAP1L2 (nucleosome assembly protein 1 like 2)
0.1	inactive	NAP1L2 (nucleosome assembly protein 1 like 2)
-0.49	inactive	NAP1L2 (nucleosome assembly protein 1 like 2)
-0.32	inactive	NAP1L2 (nucleosome assembly protein 1 like 2)
-0.47	inactive	ADORA2A (adenosine A2a receptor)
-0.19	inactive	ADORA2A (adenosine A2a receptor)
0.49	inactive	ADORA2A (adenosine A2a receptor)
-0.51	inactive	ADORA2A (adenosine A2a receptor)
-0.27	inactive	OR2A14 (olfactory receptor family 2 subfamily A member 14)
-0.03	inactive	OR2A14 (olfactory receptor family 2 subfamily A member 14)
0.05	inactive	OR2A14 (olfactory receptor family 2 subfamily A member 14)
0.12	inactive	OR2A14 (olfactory receptor family 2 subfamily A member 14)
-0.26	inactive	COMMD2 (COMM domain containing 2)
-1.57	active	COMMD2 (COMM domain containing 2)
-1.37	inactive	COMMD2 (COMM domain containing 2)
-1.21	inactive	COMMD2 (COMM domain containing 2)
0	inactive	HACE1
0.65	inactive	HACE1
0.35	inactive	HACE1
-0.14	inactive	HACE1
0.41	inactive	CDH12 (cadherin 12)
0.54	inactive	CDH12 (cadherin 12)
0.69	inactive	CDH12 (cadherin 12)
0.65	inactive	CDH12 (cadherin 12)
1.5	inactive	CYP2F1 (cytochrome P450 family 2 subfamily F member 1)
-0.3	inactive	CYP2F1 (cytochrome P450 family 2 subfamily F member 1)
0.83	inactive	CYP2F1 (cytochrome P450 family 2 subfamily F member 1)
0.81	inactive	CYP2F1 (cytochrome P450 family 2 subfamily F member 1)
0.36	inactive	C1orf122 (chromosome 1 open reading frame 122)
-0.16	inactive	C1orf122 (chromosome 1 open reading frame 122)
0.23	inactive	C1orf122 (chromosome 1 open reading frame 122)
1.26	inactive	C1orf122 (chromosome 1 open reading frame 122)
1.51	inactive	MMACHC (metabolism of cobalamin associated C)
2.29	inactive	MMACHC (metabolism of cobalamin associated C)
0.93	inactive	MMACHC (metabolism of cobalamin associated C)
0.71	inactive	MMACHC (metabolism of cobalamin associated C)
-0.72	inactive	NRG4 (neuregulin 4)
-0.94	inactive	NRG4 (neuregulin 4)
-1.2	inactive	NRG4 (neuregulin 4)
-1.05	inactive	NRG4 (neuregulin 4)
0.63	inactive	PDSS2 (decaprenyl diphosphate synthase subunit 2)
0.06	inactive	PDSS2 (decaprenyl diphosphate synthase subunit 2)
-0.33	inactive	PDSS2 (decaprenyl diphosphate synthase subunit 2)
0.26	inactive	PDSS2 (decaprenyl diphosphate synthase subunit 2)
-1.6	active	PHC2 (polyhomeotic homolog 2)
-1.46	inactive	PHC2 (polyhomeotic homolog 2)
-1.81	active	PHC2 (polyhomeotic homolog 2)
-1.39	inactive	PHC2 (polyhomeotic homolog 2)
0.9	inactive	PGF (placental growth factor)
0.59	inactive	PGF (placental growth factor)
0.2	inactive	PGF (placental growth factor)
-1.15	inactive	PGF (placental growth factor)
-1	inactive	KDM4A (lysine demethylase 4A)
-0.64	inactive	KDM4A (lysine demethylase 4A)
-0.83	inactive	KDM4A (lysine demethylase 4A)
-0.97	inactive	KDM4A (lysine demethylase 4A)
1.41	inactive	MCAT
9.05	active	MCAT
1.76	inactive	MCAT
0.53	inactive	MCAT
	inactive	KLHDC7A (kelch domain containing 7A)
0.48	inactive	DHX30 (DExH-box helicase 30)
0.43	inactive	DHX30 (DExH-box helicase 30)
0.93	inactive	DHX30 (DExH-box helicase 30)
0.74	inactive	DHX30 (DExH-box helicase 30)
2.35	inactive	DPYD (dihydropyrimidine dehydrogenase)
2.29	inactive	DPYD (dihydropyrimidine dehydrogenase)
1.71	inactive	DPYD (dihydropyrimidine dehydrogenase)
2.34	inactive	DPYD (dihydropyrimidine dehydrogenase)
-0.03	inactive	OTOGL (otogelin like)
-0.44	inactive	OTOGL (otogelin like)
-0.47	inactive	OTOGL (otogelin like)
-1.17	inactive	TUBB7P (tubulin beta 7 pseudogene)
-0.67	inactive	TUBB7P (tubulin beta 7 pseudogene)
-0.76	inactive	TUBB7P (tubulin beta 7 pseudogene)
-0.48	inactive	TUBB7P (tubulin beta 7 pseudogene)

10 successive reagents from above, for reference:
TNF reporter robust z-score	outcome	gene knocked down
0.71	inactive	MMACHC (metabolism of cobalamin associated C)
-0.72	inactive	NRG4 (neuregulin 4)
-0.94	inactive	NRG4 (neuregulin 4)
-1.2	inactive	NRG4 (neuregulin 4)
-1.05	inactive	NRG4 (neuregulin 4)
0.63	inactive	PDSS2 (decaprenyl diphosphate synthase subunit 2)
0.06	inactive	PDSS2 (decaprenyl diphosphate synthase subunit 2)
-0.33	inactive	PDSS2 (decaprenyl diphosphate synthase subunit 2)
0.26	inactive	PDSS2 (decaprenyl diphosphate synthase subunit 2)
-1.6	active	PHC2 (polyhomeotic homolog 2)
